Data on 2 substances can be found in paper doi:10.1101/2021.03.06.434066.

Sequences of proteins named here, by UniProt entry; tags and fusion partners are left off. A change or cut given only in a name is not applied to a line headed by its entry.
UniProt P62491: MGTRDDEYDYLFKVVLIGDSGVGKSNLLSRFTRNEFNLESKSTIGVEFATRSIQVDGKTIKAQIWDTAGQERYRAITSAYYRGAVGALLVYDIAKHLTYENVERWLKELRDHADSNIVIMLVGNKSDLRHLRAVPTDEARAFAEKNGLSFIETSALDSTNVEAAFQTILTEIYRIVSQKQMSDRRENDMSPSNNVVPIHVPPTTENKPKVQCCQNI
UniProt Q8TBN0: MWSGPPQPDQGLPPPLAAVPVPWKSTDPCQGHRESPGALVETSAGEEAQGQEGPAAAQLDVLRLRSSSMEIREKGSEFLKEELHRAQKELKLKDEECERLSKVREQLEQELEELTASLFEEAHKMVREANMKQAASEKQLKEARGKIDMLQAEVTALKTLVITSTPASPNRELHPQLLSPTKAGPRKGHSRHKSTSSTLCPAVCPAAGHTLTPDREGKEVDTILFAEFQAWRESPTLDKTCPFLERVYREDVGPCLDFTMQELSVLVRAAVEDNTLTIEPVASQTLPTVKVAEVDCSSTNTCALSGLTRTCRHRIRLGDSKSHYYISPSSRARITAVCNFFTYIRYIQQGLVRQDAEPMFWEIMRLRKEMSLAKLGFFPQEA

No constants are given. Whether binding was seen depends on the method and setting. Binding seen in cells or lysates may run through a third protein. Binding can be weak; no strength is given.

Assay [1] concerns the target mCherry-Rab11a (UniProt P62491). Description: co-IP.
Assay [2] deals with GRABΔ223-GFP (UniProt Q8TBN0). Description: co-IP.

For the substance GRABΔ223-GFP (from UniProt Q8TBN0), in assay [1], the binding result is on record as “binds”.
Take “mCherry-Rab11a (from UniProt P62491 1-216)”: in assay [2], the binding result is listed as “binds”.
